Experimental data published in US20230278984A1 (Global Blood Therapeutics, Inc., priority 2020, published 2023).
The match of structure and compound is tentative.

By UniProt entry, the sequences of proteins in these tests, tags left out. Residues count along the entry.
UniProt P30613, 14-574 limits assumed: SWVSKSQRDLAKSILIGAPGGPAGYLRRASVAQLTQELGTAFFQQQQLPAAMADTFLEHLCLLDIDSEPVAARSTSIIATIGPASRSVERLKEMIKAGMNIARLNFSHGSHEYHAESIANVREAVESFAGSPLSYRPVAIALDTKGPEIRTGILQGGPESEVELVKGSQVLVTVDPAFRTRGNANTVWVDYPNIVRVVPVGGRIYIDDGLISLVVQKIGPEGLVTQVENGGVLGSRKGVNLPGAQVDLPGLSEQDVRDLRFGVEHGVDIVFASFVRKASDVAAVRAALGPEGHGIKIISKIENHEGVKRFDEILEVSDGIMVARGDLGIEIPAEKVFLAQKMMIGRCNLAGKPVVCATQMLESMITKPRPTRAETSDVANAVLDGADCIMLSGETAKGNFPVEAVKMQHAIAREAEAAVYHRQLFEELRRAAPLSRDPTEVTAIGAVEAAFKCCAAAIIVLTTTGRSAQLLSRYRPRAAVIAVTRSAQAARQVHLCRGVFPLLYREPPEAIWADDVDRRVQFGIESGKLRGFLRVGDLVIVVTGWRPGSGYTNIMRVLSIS

Molecular target: Human pyruvate kinase R (PKR) (Homo sapiens, UniProt P30613)
Test: Biochemical assay for activation of pyruvate kinase R (Kinase-Glo luminescence measurement of ATP generation)

SMILES: Cc1nc(CNC(=O)NCc2ncnn2-c2ccc3ncsc3c2)n(-c2ccc(Cl)c(F)c2)n1
- PKR % activation (maximal activation level) (maximal activation level relative to the activation level achieved by the literature compound AG-348 @ 10 μM): 75%
- AC50 (read-out: PKR AC50, PKR biochemical assay, 0.1 nM PKR, 0.3 mM ADP, 2 mM FBP, 0.1 mM PEP): 46 nM
